The record followed here is publication PMC10831072.

Chains of the proteins cited; added tags and fusions are not shown.
UniProt Q5DTM8: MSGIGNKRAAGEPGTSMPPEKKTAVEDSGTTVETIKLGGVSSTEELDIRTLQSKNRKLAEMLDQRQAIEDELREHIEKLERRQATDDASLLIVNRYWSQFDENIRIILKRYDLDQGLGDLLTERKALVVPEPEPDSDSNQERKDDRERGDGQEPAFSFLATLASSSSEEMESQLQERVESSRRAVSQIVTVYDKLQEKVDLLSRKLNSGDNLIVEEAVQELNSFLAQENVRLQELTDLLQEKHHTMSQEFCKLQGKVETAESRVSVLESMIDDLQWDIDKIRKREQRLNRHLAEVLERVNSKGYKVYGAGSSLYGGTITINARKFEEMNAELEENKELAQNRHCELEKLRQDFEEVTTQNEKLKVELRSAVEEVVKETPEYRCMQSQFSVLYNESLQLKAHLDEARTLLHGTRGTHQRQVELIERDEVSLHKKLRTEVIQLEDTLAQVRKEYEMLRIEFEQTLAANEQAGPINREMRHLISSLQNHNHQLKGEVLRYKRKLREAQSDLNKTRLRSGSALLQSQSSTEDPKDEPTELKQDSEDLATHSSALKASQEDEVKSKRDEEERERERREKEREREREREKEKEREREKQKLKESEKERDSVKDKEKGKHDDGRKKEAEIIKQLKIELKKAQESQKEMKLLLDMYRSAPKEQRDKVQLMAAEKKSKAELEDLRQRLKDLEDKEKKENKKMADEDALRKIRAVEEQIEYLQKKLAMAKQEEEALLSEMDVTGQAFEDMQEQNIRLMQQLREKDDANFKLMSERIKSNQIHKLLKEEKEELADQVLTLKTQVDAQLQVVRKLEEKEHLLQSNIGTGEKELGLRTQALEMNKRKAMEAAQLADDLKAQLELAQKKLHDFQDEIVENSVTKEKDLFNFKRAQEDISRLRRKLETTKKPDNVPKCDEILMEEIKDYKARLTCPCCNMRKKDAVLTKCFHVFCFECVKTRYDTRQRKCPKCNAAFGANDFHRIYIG

For the test, the target named is T1, guanine and adenine-binding protein alpha (GABPα) (mouse (endogenous in BAT)) (UniProt Q00422).
T1 sequence: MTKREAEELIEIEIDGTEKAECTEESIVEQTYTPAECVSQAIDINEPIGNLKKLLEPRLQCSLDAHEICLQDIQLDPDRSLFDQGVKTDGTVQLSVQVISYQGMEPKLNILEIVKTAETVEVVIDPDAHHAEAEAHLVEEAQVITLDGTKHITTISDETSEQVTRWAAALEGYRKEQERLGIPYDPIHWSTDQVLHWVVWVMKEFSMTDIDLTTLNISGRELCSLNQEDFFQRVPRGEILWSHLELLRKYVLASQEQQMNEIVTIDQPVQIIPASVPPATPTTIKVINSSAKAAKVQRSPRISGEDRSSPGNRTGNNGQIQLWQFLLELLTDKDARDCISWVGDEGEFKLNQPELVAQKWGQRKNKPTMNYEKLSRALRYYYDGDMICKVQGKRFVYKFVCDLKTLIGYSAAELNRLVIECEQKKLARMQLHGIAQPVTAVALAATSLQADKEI
As to the kind of experiment: co-IP; endogenous co-immunoprecipitation using GABPα antibody in BAT; RIPA lysate (150 mM NaCl, 50 mM Tris-HCl pH 7.4, 1% NP-40, 0.25% sodium deoxycholate, 1 mM EDTA, MG132), 1 mg lysate, antibody overnight at 4 °C, Protein A-Sepharose, western blot.

Results are given in words; binding and its absence hold for the method and conditions named. Binding seen in cells or lysates may run through a third protein. Some binding calls cover weakened binding; strength is not graded here.

For the substance “E3 ubiquitin ligase ring finger protein 20 (RNF20) (from UniProt Q5DTM8 1-973) (enzyme)”, the binding result was “binds”.
